# Assay results reported in patent US9730944B2, “Antiviral activity of novel bicyclic heterocycles” (priority 2010, dated 2017).
# Some entries share one result that the patent states for a list of compounds.
# System: G-luc cells
# Assay: Cytotoxicity in G-luc replicon cells, Promega CellTiter-Glo cell viability assay
# Settings: read-out: CC50 in G-luc cells, highest tested concentrations
compound,measurement,value
"CCCc1nc2c(N3CCN(C(=O)COc4ccc(Cl)cc4)CC3)nc(N)nc2[nH]1 [Example 397, 1-(4-(2-amino-8-propyl-9H-purin-64)piperazin-1-yl)-2-(4-chlorophenoxy)ethanone]",CC50,> 50 µM
